Source: US20100063032A1, “SUBSTITUTED PYRIDO[2,3-D]PYRIMIDINE DERIVATIVES AS CANNABINOID-1 RECEPTOR MODULATORS” (priority 2007, published 2010)
Counter-ions that a name gives are not always drawn. Some entries share one result that the patent states for a list of compounds.

By UniProt entry, the sequences of proteins in these tests, tags left out.
UniProt P21554, whole entry: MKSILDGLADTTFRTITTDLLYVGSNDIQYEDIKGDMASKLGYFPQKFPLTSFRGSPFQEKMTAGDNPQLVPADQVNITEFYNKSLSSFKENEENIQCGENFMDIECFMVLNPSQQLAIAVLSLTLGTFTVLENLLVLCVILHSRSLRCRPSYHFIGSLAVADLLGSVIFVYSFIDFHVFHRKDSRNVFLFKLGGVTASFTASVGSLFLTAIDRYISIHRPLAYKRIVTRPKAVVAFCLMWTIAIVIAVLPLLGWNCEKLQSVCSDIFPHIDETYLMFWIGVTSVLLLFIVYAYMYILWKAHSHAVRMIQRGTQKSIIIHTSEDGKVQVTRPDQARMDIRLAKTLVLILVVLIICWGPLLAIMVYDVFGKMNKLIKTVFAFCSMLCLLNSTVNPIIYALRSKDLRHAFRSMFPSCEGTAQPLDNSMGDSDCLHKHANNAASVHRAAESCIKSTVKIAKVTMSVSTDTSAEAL

biological target: recombinant human CB1 receptor (Homo sapiens, UniProt P21554); experiment: Cannabinoid Receptor-1 (CB1) Binding Assay ([3H]CP-55940 displacement); settings: recombinant human CB1 in CHO cell membranes, 0.6 nM [3H]CP-55940
Protocol: Binding affinity determination is based on recombinant human CB1 receptor expressed in Chinese Hamster Ovary (CHO) cells (Felder et al, Mol. Pharmacol. 48: 443-450, 1995). Total assay volume is 250 μl (240 μl CB1 receptor membrane solution plus 5 μl test compound solution plus 5 μl [3H]CP-55940 solution). Final concentration of [3H]CP-55940 is 0.6 nM. Binding buffer contains 50 mM Tris-HCl, pH 7.4, 2.5 mM EDTA, 5 mM MgCl28, 0.5 mg/mL fatty acid free bovine serum albumin and protease inhibitors (Cat#P8340, from Sigma). To initiate the binding reaction, 5 μl of radioligand solution is added, the mixture is incubated with gentle shaking on a shaker for 1.5 h at 30° C. The binding is terminated by using 96-well harvester and filtering through GF/C filter presoaked in 0.05% polyethylenimine. The bound radiolabel is quantitated using scintillation counter. Apparent binding affinities for various compounds are calculated from IC50 values (DeBlasi et al., Trends Pharmacol Sci 10: 227-229, 1989).

Q: For `CC(C)c1nc2nc(-c3ccc(Br)cc3Cl)c(-c3ccc(Cl)cc3)cc2c(=O)[nH]1` [Example 18, 7-(4-Bromo-2-chlorophenyl)-6-(4-chlorophenyl)-2-isopropylpyrido[2,3-d]pyrimidin-4(3H)-one], which IC50 is on record?
A: The IC50 was under 1000 nM.

Q: `CC(C)(C)c1nc2nc(-c3ccccc3Cl)c(-c3ccc(Br)cc3)cc2c(=O)[nH]1` [Example 19, 6-(4-Bromophenyl)-2-tert-butyl-7-(2-chlorophenyl)pyrido[2,3-d]pyrimidin-4(3H)-one] was tested. Which IC50 did it give?
A: The IC50 was under 1000 nM.

Q: With `CC(C)(C)c1nc2nc(-c3ccccc3Br)c(-c3ccc(Cl)cc3)cc2c(=O)[nH]1` [Example 20, 7-(2-Bromophenyl)-2-tert-butyl-6-(4-chlorophenyl)pyrido[2,3-d]pyrimidin-4(3H)-one] as the compound, how does the IC50 read?
A: The IC50 was under 1000 nM.

Q: How did the IC50 turn out when `CC(C)(C)c1nc2nc(-c3ccc(Cl)cc3Br)c(-c3ccc(Cl)cc3)cc2c(=O)[nH]1` [Example 21, 7-(2-Bromo-4-chlorophenyl)-2-tert-butyl-6-(4-chlorophenyl)pyrido[2,3-d]pyrimidin-4(3H)-one] was run?
A: Its IC50 is under 1000 nM.

Q: Which IC50 does the source give for `Cc1cccc(-c2nc3nc(C(C)(C)C)[nH]c(=O)c3cc2-c2ccc(Cl)cc2)c1Cl` [Example 22, 2-Tert-butyl-7-(2-chloro-3-methylphenyl)-6-(4-chlorophenyl)pyrido[2,3-d]pyrimidin-4(3H)-one] here?
A: The IC50 was under 1000 nM.

Q: With `CC(C)(C)c1nc2nc(-c3ccc(C#N)cc3Cl)c(-c3ccc(Cl)cc3)cc2c(=O)[nH]1` [Example 23, 4-[2-Tert-butyl-6-(4-chlorophenyl)-4-oxo-3,4-dihydropyrido[2,3-a]pyrimidin-7-yl]-3-chlorobenzonitrile] as the compound, how does the IC50 read?
A: The IC50 was under 1000 nM.

Q: For `CC(C)(C)c1nc2nc(-c3ccccc3Cl)c(-c3ccc(-c4ncon4)cc3)cc2c(=O)[nH]1` [Example 24, 2-Tert-butyl-7-(2-chlorophenyl)-6-[4-(1,2,4-oxadiazol-3-yl)phenyl]pyrido[2,3-d]pyrimidin-4(3H)-one], which IC50 is on record?
A: Its IC50 is under 1000 nM.

Q: Which IC50 does the source give for `CC(C)(C)c1nc2nc(-c3ccc(-c4cn[nH]c4)cc3Cl)c(-c3ccc(Cl)cc3)cc2c(=O)[nH]1` [Example 25, 2-Tert-butyl-6-(4-chlorophenyl)-7-[2-chloro-4-(1H-pyrazol-4-yl)phenyl]pyrido[2,3-d]pyrimidin-4(3H)-one] here?
A: Its IC50 is under 1000 nM.

Q: Which IC50 does the source give for `CC(C)(C)c1nc(Cl)c2cc(-c3ccc(Cl)cc3)c(-c3ccccc3Cl)nc2n1` [Example 26, 2-Tert-butyl-4-chloro-7-(2-chlorophenyl)-6-(4-chlorophenyl)pyrido[2,3-d]pyrimidine] here?
A: Its IC50 is under 1000 nM.

Q: With `CC(C)(C)c1nc(Cl)c2cc(-c3ccc(Cl)cc3)c(-c3ccc(Br)cc3Cl)nc2n1` [Example 27, 7-(4-Bromo-2-chlorophenyl)-2-tert-butyl-4-chloro-6-(4-chlorophenyl)pyrido[2,3-d]pyrimidine] as the compound, how does the IC50 read?
A: Its IC50 is under 1000 nM.

Q: For `CC(C)c1nc(Cl)c2cc(-c3ccc(Cl)cc3)c(-c3ccc(Br)cc3Cl)nc2n1` [Example 28, 7-(4-Bromo-2-chlorophenyl)-4-chloro-6-(4-chlorophenyl)-2-isopropylpyrido[2,3-d]pyrimidine], which IC50 is on record?
A: The IC50 was under 1000 nM.

Q: How did the IC50 turn out when `CC(C)(C)c1nc(Cl)c2cc(-c3ccc(C#N)cc3)c(-c3ccccc3Cl)nc2n1` [Example 29, 4-[2-Tert-butyl-4-chloro-7-(2-chlorophenyl)pyrido[2,3-d]pyrimidin-6-yl]benzonitrile] was run?
A: The IC50 was under 1000 nM.

Q: With `CC(C)(C)c1nc(Cl)c2cc(-c3ccc(Br)cc3)c(-c3ccccc3Cl)nc2n1` [Example 30, 6-(4-Bromophenyl)-2-tert-butyl-4-chloro-7-(2-chlorophenyl)pyrido[2,3-d]pyrimidine] as the compound, how does the IC50 read?
A: The IC50 was under 1000 nM.

Q: Which IC50 does the source give for `CC(C)(C)c1nc(Cl)c2cc(-c3ccc(Cl)cc3)c(-c3ccccc3Br)nc2n1` [Example 31, 7-(2-Bromophenyl)-2-tert-butyl-4-chloro-6-(4-chlorophenyl)pyrido[2,3-d]pyrimidine] here?
A: Its IC50 is under 1000 nM.

Q: With `CC(C)(C)c1nc(Cl)c2cc(-c3ccc(Cl)cc3)c(-c3ccc(Cl)cc3Br)nc2n1` [Example 32, 7-(2-Bromo-4-chlorophenyl)-2-tert-butyl-4-chloro-6-(4-chlorophenyl)pyrido[2,3-d]pyrimidine] as the compound, how does the IC50 read?
A: The IC50 was under 1000 nM.

Q: For `Cc1cccc(-c2nc3nc(C(C)(C)C)nc(Cl)c3cc2-c2ccc(Cl)cc2)c1Cl` [Example 33, 2-Tert-butyl-4-chloro-7-(2-chloro-3-methylphenyl)-6-(4-chlorophenyl)pyrido[2,3-d]pyrimidine], which IC50 is on record?
A: Its IC50 is under 1000 nM.

Q: With `CC(C)(C)c1nc(NS(C)(=O)=O)c2cc(-c3ccc(Cl)cc3)c(-c3ccccc3Cl)nc2n1` [Example 34, N-[2-Tert-butyl-7-(2-chlorophenyl)-6-(4-chlorophenyl)pyrido[2,3-d]pyrimidin-4-yl]methanesulfonamide] as the compound, how does the IC50 read?
A: The IC50 was under 1000 nM.

Q: `CC(C)Nc1nc(C(C)(C)C)nc2nc(-c3ccccc3Cl)c(-c3ccc(Cl)cc3)cc12` [Example 35, 2-Tert-butyl-7-(2-chlorophenyl)-6-(4-chlorophenyl)-N-isopropylpyrido[2,3-d]pyrimidin-4-amine] was tested. Which IC50 did it give?
A: The IC50 was under 1000 nM.

Q: How did the IC50 turn out when `CN(C)c1nc(C(C)(C)C)nc2nc(-c3ccccc3Cl)c(-c3ccc(Cl)cc3)cc12` [Example 36, 2-Tert-butyl-7-(2-chlorophenyl)-6-(4-chlorophenyl)-N,N-dimethylpyrido[2,3-d]pyrimidin-4-amine] was run?
A: The IC50 was under 1000 nM.

Q: `CC(C)(C)c1nc(NCC(F)(F)CO)c2cc(-c3ccc(Cl)cc3)c(-c3ccccc3Cl)nc2n1` [Example 37, 3-{[2-Tert-butyl-7-(2-chlorophenyl)-6-(4-chlorophenyl)pyrido[2,3-d]pyrimidin-4-yl]amino}-2,2-difluoropropan-1-ol] was tested. Which IC50 did it give?
A: Its IC50 is under 1000 nM.

Q: For `CC(C)(C)c1nc(N2CCCC2)c2cc(-c3ccc(Cl)cc3)c(-c3ccccc3Cl)nc2n1` [Example 38, 2-Tert-butyl-7-(2-chlorophenyl)-6-(4-chlorophenyl)-4-pyrrolidin-1-ylpyrido[2,3-d]pyrimidine hydrochloride], which IC50 is on record?
A: Its IC50 is under 1000 nM.

Q: Which IC50 does the source give for `CC(C)(C)c1nc(N2CCCNCC2)c2cc(-c3ccc(Cl)cc3)c(-c3ccccc3Cl)nc2n1` [Example 39, 2-Tert-butyl-7-(2-chlorophenyl)-6-(4-chlorophenyl)-4-(1,4-diazepan-1-yl)pyrido[2,3-d]pyrimidine] here?
A: The IC50 was under 1000 nM.

Q: With `CC(C)(C)c1nc(N2CCNCC2)c2cc(-c3ccc(Cl)cc3)c(-c3ccccc3Cl)nc2n1` [Example 40, 2-Tert-butyl-7-(2-chlorophenyl)-6-(4-chlorophenyl)-4-piperazin-1-ylpyrido[2,3-d]pyrimidine] as the compound, how does the IC50 read?
A: The IC50 was under 1000 nM.

Q: How did the IC50 turn out when `CN1CCN(c2nc(C(C)(C)C)nc3nc(-c4ccccc4Cl)c(-c4ccc(Cl)cc4)cc23)CC1` [Example 41, 2-Tert-butyl-7-(2-chlorophenyl)-6-(4-chlorophenyl)-4-(4-methylpiperazin-1-yl)pyrido[2,3-d]pyrimidine] was run?
A: The IC50 was under 1000 nM.

Q: How did the IC50 turn out when `CC(C)(C)c1nc(N2CCC[C@H]2C(N)=O)c2cc(-c3ccc(Cl)cc3)c(-c3ccccc3Cl)nc2n1` [Example 42, 1-[2-Tert-butyl-7-(2-chlorophenyl)-6-(4-chlorophenyl)pyrido[2,3-d]pyrimidin-4-yl]-L-prolinamide] was run?
A: Its IC50 is under 1000 nM.

Q: With `CC(C)(C)c1nc(N2CC[C@@H](O)C2)c2cc(-c3ccc(Cl)cc3)c(-c3ccccc3Cl)nc2n1` [Example 43, (3R)-1-[2-Tert-butyl-7-(2-chlorophenyl)-6-(4-chlorophenyl)pyrido[2,3-d]pyrimidin-4-yl]pyrrolidin-3-ol] as the compound, how does the IC50 read?
A: The IC50 was under 1000 nM.
